{"source": "paper PMC8096244", "binders": {"B1": {"name": "Mer3-Flag (protein, UniProt P51979 1-1187)", "chain": "MKTKFDRLGTGKRSRPSPNNIDFNDQSATFKRNKKNSRQPSFKVGLSYNSLLDDCDDENETEEIFEGRGLQFFDKDDNFSITADDTQVTSKLFDHDLEQTPDEEAKKPKKVTIRKSAKKCLSTTILPDSFRGVFKFTEFNKMQSEAFPSIYESNENCIISSPTGSGKTVLFELAILRLIKETNSDTNNTKIIYIAPTKSLCYEMYKNWFPSFVNLSVGMLTSDTSFLETEKAKKCNIIITTPEKWDLLTRRWSDYSRLFELVKLVLVDEIHTIKEKRGASLEVILTRMNTMCQNIRFVALSATVPNIEDLALWLKTNNELPANILSFDESYRQVQLTKFVYGYSFNCKNDFQKDAIYNSKLIEIIEKHADNRPVLIFCPTRASTISTAKFLLNNHIFSKSKKRCNHNPSDKILNECMQQGIAFHHAGISLEDRTAVEKEFLAGSINILCSTSTLAVGVNLPAYLVIIKGTKSWNSSEIQEYSDLDVLQMIGRAGRPQFETHGCAVIMTDSKMKQTYENLIHGTDVLESSLHLNLIEHLAAETSLETVYSIETAVNWLRNTFFYVRFGKNPAAYQEVNRYVSFHSVEDSQINQFCQYLLDTLVKVKIIDISNGEYKSTAYGNAMTRHYISFESMKQFINAKKFLSLQGILNLLATSEEFSVMRVRHNEKKLFKEINLSPLLKYPFLTEKKQSQIIDRVSQKVSLLIQYELGGLEFPSYEGASKLHQTLVQDKFLVFRHCFRLLKCMVDTFIEKSDGTSLKNTLFLLRSLNGHCWENTPMVLRQLKTIGLVSVRRLIRHGITNLEEMGHLSDTQIEYYLNLKIGNGIKIKNDISLLPCLNIRTKLENCKIENEELWLTFKVEISATFKSSIWHGQHLSLDIETEKSSGELIDFRRLQVNKLQSPRGFRISAKISPKLEKIEFSIHCQEIAGLGKTIVYSTDHLASQFSAKTPNIRKDLNSLEKCLFYESSSDGEVGKTSRVSHKDGLEESLSSDDSILDYLNERKKSSKAVESAAVIHPEAHSSSHFSNGRQVRSNGNYECFHSCKDKTQCRHLCCKEGIPVKYIKEKGPSSIKPVSKPDQIRQPLLAKNINTTPHLEKRLNSKPKQWQEENTDIATVHTLPSKIYNLSQQMSSMEAGEQVLKSGPENCPEIIPIDLESSDSYSSNTAASSISDPNGDLDFLGSDIEFE"}}, "target": "T1, Rfc1-TAP (S. cerevisiae) (UniProt P38630)", "T1 sequence": "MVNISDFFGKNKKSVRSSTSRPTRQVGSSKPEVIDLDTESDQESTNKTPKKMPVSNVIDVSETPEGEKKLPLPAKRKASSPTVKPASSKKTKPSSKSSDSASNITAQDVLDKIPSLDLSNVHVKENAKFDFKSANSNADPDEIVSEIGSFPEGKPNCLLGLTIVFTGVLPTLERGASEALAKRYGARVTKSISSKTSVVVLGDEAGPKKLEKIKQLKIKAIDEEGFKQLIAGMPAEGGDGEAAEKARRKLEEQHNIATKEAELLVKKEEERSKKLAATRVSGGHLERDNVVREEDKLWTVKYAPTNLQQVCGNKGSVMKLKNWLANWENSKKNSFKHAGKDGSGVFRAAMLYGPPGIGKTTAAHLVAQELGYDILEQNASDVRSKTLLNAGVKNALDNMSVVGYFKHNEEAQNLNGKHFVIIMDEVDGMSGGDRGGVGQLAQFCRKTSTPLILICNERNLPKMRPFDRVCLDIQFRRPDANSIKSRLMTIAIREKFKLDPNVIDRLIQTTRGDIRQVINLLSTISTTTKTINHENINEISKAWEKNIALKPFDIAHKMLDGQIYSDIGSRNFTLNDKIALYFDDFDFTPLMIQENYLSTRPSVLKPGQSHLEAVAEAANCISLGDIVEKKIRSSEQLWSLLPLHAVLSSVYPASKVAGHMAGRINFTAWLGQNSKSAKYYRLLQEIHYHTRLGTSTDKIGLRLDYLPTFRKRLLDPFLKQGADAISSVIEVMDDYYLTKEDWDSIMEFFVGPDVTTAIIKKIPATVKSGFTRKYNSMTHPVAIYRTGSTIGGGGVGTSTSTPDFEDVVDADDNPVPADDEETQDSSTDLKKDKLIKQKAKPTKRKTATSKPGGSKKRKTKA", "assay": "co-IP; TAP-tagged bait captured on PanMouse IgG magnetic beads from lysate of cells at 5 h in meiosis (150 mM NaCl, 0.5% Triton X-100, benzonase, overnight at 4°C), TEV elution, western blot", "note": "No constants are given. Whether binding was seen depends on the method and setting. In cells and extracts the contact can be indirect. Some entries that bind do so weakly or less than the wild type. Tags and fused reporters may be left off the sequences shown.", "data": [{"binder": "B1", "values": [{"measurement": "binding", "result": "binds"}]}]}
